Test results published in patent publication US20050276757A1.
Results are given in words; binding and its absence hold for the method and conditions named. For some assays here: Binding seen in cells or lysates may run through a third protein. Some binding calls cover weakened binding; strength is not graded here.

The chains behind the UniProt entries cited, without tags or fusion partners.
UniProt Q8N4C8: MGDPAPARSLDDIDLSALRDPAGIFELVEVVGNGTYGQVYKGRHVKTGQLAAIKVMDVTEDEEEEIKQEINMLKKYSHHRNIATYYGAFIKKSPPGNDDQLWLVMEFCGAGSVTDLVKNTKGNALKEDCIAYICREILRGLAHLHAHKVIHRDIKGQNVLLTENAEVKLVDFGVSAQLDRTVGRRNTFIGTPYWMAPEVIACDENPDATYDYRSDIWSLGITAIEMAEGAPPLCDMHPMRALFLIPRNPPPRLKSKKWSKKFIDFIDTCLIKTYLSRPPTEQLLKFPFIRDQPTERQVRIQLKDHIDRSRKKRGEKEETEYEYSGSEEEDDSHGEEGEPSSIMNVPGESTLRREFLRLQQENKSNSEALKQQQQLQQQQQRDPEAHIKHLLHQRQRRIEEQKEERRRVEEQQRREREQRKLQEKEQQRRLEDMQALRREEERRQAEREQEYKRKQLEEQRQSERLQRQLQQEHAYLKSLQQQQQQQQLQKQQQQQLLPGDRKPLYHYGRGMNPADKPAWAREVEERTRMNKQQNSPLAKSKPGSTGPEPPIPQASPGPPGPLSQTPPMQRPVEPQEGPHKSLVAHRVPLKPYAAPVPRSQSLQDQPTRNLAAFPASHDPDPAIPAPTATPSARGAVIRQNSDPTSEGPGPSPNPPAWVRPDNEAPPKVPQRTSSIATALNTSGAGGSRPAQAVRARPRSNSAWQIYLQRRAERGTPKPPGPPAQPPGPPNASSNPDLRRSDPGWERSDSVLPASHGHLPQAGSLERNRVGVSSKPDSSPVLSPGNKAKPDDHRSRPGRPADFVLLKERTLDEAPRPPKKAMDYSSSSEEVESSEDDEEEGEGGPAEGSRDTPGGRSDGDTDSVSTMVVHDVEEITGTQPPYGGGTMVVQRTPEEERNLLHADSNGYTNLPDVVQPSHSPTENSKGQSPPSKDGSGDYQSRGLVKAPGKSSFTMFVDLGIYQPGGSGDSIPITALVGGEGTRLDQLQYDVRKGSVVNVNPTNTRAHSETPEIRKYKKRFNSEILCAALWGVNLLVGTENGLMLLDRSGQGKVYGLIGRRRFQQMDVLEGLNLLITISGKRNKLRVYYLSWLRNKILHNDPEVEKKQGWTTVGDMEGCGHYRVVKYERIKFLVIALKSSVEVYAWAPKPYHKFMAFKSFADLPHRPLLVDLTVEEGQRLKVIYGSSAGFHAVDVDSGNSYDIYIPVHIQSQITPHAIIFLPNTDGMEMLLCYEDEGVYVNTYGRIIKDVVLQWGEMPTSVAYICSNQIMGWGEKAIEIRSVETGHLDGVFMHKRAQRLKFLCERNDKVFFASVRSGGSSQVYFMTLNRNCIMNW
UniProt Q9NYB9: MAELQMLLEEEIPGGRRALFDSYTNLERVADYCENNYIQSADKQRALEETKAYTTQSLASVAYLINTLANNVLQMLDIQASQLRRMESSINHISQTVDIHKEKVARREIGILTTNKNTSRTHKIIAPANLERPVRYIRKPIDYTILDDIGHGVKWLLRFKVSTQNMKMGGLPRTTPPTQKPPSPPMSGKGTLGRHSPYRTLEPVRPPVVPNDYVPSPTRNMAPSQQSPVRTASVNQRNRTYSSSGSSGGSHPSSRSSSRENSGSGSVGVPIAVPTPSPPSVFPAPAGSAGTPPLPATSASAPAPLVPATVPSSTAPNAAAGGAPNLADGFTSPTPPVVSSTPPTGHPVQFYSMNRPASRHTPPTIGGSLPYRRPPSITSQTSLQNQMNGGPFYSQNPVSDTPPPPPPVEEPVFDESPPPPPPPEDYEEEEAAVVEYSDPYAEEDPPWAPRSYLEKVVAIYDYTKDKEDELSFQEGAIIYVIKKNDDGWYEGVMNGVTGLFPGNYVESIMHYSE

Experiments:
[1] = molecular target: ZC3 kinase expressed from pcDNA-ZC3 (human) (UniProt Q8N4C8); assay: immunoprecipitation with anti-ZC3 antibody (292B) from co-transfected COS7 cells, blot for Abi
[2] = molecular target: ZC3 kinase expressed from pcDNA-ZC3 (human) (UniProt Q8N4C8); assay: co-immunoprecipitation from co-transfected COS-7 cells
[3] = molecular target: HA-tagged Abi-2B expressed from pCGN HA-Abi2B (UniProt Q9NYB9); assay: as above
[4] = molecular target: HA-tagged Abi-2B expressed from pCGN HA-Abi2B (UniProt Q9NYB9); assay: immunoprecipitation with anti-HA antibody (12CA5) from co-transfected COS7 cells, blot for ZC3
[5] = molecular target: HA-tagged Abi-2B expressed from pCGN HA-Abi2B (UniProt Q9NYB9); assay: co-immunoprecipitation from co-transfected COS7 cells

binding [1] | binding [2] | binding [3] | binding [4] | binding [5] | Substance
binds | binds | – | – | – | HA-tagged Abi-2B expressed from pCGN HA-Abi2B (from UniProt Q9NYB9 1-513)
– | – | binds | binds | binds | ZC3 kinase expressed from pcDNA-ZC3 (from UniProt Q8N4C8 1-1332) (enzyme)
